Laboratory results taken from PubChem BioAssay AID493014 (National Center for Advancing Translational Sciences (NCATS), 2011).
This is one part of the list. The main result of the screen is listed elsewhere. These columns were measured beside it and carry no call. Compounds called inactive in the main read-out are mostly missing here. Potencies come from curve fits of mixed quality, noted in brackets.

Test: qHTS Assay to Find Inhibitors of Chronic Active B-Cell Receptor Signaling
Details: ABC-DLBCL IkBa-CBG/CBR reporter, luminescence ratio (green luciferase fused to IkBa over red control in TMD8 lymphoma cells), 4 h
Summary of the method: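 Doxycycline induced both beetle luciferases in TMD8 lymphoma cells; IKK-driven degradation limits the IkappaBalpha-fused green signal, while red luminescence normalises for cell number and nonspecific effects. Compounds tested up to 46 uM, 4 hrs.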

[1] = measured here: CBR red luminescence, cell number
[2] = measured here: IkBa-CBG green luminescence

Row | SMILES | AC50 [1] | AC50 [2]
1 | COc1ccccc1NC(=O)C(=O)NCCCN1CCCC1=O | 18.4 µM [falling, partial curve] | –
2 | O=C(CSC(=S)N1CCOCC1)c1cc(Br)cc(Br)c1O | 35.5 µM [rising, partial curve, poor fit] | –
3 | O=C(Nc1ccc2c(c1)OCCO2)c1ccc(Br)o1 | 11.2 µM [falling, partial curve, poor fit] | –
4 | COc1cccc(CNC(=O)Cn2cc3c(n2)CCCCC3)c1 | 16.4 µM [falling, partial curve] | –
5 | COC(=O)Cn1cnc2ccccc2c1=O | 8.2 µM [rising, partial curve, poor fit] | –
6 | CCN(CCn1cccn1)C(=O)CCc1nnc(CCCc2ccccc2)o1 | 15.8 µM [rising, single point] | –
7 | O=C(NC1CCCCC1)C(c1ccccc1)N(C(=O)c1csnn1)C1CCCC1 (stereo not drawn) | 35.5 µM [falling, single point] | –
8 | COc1ccc2sc(-c3ccc(S(C)(=O)=O)cc3)c(-c3ccc(C(N)=O)cc3)c2c1 | 18.4 µM [rising, single point] | –
9 | COc1ccc(S(=O)(=O)N(CCCN2CCOCC2)Cc2cccc3ccccc23)cc1 | 11.6 µM [falling, partial curve, poor fit] | –
10 | Cc1noc(C)c1CSCC(=O)Nc1cc(Cl)ccc1N1CCOCC1 | 15.8 µM [rising, single point] | –
11 | Cc1ccc(-c2csc(=S)[nH]2)cc1 | 5.62 µM [rising, single point] | –
12 | CN(C)N1C(N)=C(C#N)C(c2ccc3c(c2)OCO3)C2=C1CC(C)(C)CC2=O (stereo not drawn) | 6.31 µM [rising, single point] | –
13 | CN(C)S(=O)(=O)c1cccc(C(=O)OCC(=O)NC2CCCc3ccccc32)c1 (stereo not drawn) | 2.59 µM [rising, full curve] | –
14 | CCN(Cc1ccc(C#CCCO)cc1)CC1CCCN(CCc2cccc(F)c2)C1 (stereo not drawn) | 17.8 µM [falling, single point] | –
15 | CCSc1nnc(NC(=O)Nc2cccc(C)c2)s1 | 35.5 µM [falling, single point] | –
16 | CCOC(=O)c1ccc(OCc2c(C)noc2C)cc1 | 18.4 µM [rising, partial curve, poor fit] | –
17 | Cc1nn(-c2ccccc2)c(C)c1/C=N/NC(=O)c1cc(O)cc(O)c1 | 35.5 µM [falling, single point] | –
18 | Cc1cc(S(=O)(=O)N2CCN(c3ccccc3C)CC2)ccc1F | 0.411 µM [falling, full curve, poor fit] | –
19 | Cc1cccc(N(CC(=O)NCc2ccco2)C(=O)CCC(=O)Nc2nccs2)c1C | 35.5 µM [falling, single point] | –
20 | O=C(O)CCn1cc(/C=C/C(=O)c2ccc(Cl)cc2)c(-c2cccc(Br)c2)n1 | 7.08 µM [falling, partial curve] | –
21 | CCOc1ccccc1NC(=O)CSc1nc2c(c(=O)n1C)SC(C)C2 (stereo not drawn) | 20.6 µM [falling, single point] | –

2 compounds picked at random from those above, as already listed:
Row | SMILES | AC50 [1] | AC50 [2]
4 | COc1cccc(CNC(=O)Cn2cc3c(n2)CCCCC3)c1 | 16.4 µM [falling, partial curve] | –
14 | CCN(Cc1ccc(C#CCCO)cc1)CC1CCCN(CCc2cccc(F)c2)C1 (stereo not drawn) | 17.8 µM [falling, single point] | –

(further entries)

Row | SMILES | AC50 [1] | AC50 [2]
22 | NC(=O)c1ccsc1NC(=O)Cc1ccc([N+](=O)[O-])cc1 | 7.94 µM [falling, partial curve] | –
23 | CC(C)c1ccc(N(CC(=O)NCCSCc2ccco2)S(C)(=O)=O)cc1 | 20 µM [rising, single point] | –
24 | CCC1(C)Cc2c(sc3nc4n(c(=O)c23)CCS4)CO1 (stereo not drawn) | 22.4 µM [falling, single point] | –
25 | Cc1noc(C)c1S(=O)(=O)N1CCC(C(=O)N(C)Cc2ccccc2)CC1 | 20.6 µM [rising, partial curve] | –
26 | Cc1ccc(C(=O)Nc2ccc(Br)c(C(F)(F)F)c2)cc1 | 22.4 µM [falling, single point] | –
27 | Cc1ccc(CN2CCN(CC(=O)N/N=C/c3ccccc3F)CC2)cc1 | 6.31 µM [rising, single point] | –
28 | C#CCSc1nnc(-c2ccc(OC)cc2)o1 | 29.1 µM [falling, single point] | –
29 | Cc1nn(-c2ccccc2)c(N)c1-c1ccccc1 | 11.2 µM [falling, partial curve] | –
30 | COc1ccccc1C(=O)NCC(c1cccs1)N1CCc2ccccc21 (stereo not drawn) | 23.1 µM [falling, single point] | –
31 | COc1ccc(NC(=S)Nc2ccccn2)cc1 | 17.8 µM [rising, partial curve, poor fit] | 20 µM [falling, single point]
32 | Cc1nn(-c2cc(C(F)(F)F)ccc2Cl)c2nc(C(Cl)(Cl)Cl)[nH]c(=O)c12 | 6.31 µM [falling, partial curve, poor fit] | –
33 | FC(F)(F)c1cnc(N2CCN(C(=S)NCc3ccccc3)CC2)c(Cl)c1 | 35.5 µM [falling, single point] | –
34 | CCC(=O)Nc1sc2c(c1C(N)=O)CCN(C(C)=O)C2 | 0.206 µM [falling, full curve, poor fit] | –
35 | COCCOC(=O)C1=C(C)Nc2nc(C)nn2C1c1ccc(F)cc1 (stereo not drawn) | 0.562 µM [falling, partial curve, poor fit] | –
36 | O=C(Nc1nc2c(F)cc(F)cc2s1)c1ccc([N+](=O)[O-])o1 | 0.141 µM [falling, full curve, poor fit] | –
37 | CCOP(=O)(c1ccccc1)c1nc(-c2ccccc2Cl)oc1N1CCCCC1 (stereo not drawn) | – | 29.1 µM [rising, single point]
38 | O=C(Nc1ccc(N2CCOCC2)cc1)c1ccc2ncsc2c1 | 4.61 µM [falling, partial curve, poor fit] | –
39 | CCOc1cccc(NC(=O)C2CC(=O)N(C)C(=Nc3cccc(F)c3)S2)c1 (stereo not drawn) | 14.1 µM [falling, single point] | –
40 | COC1CCN(Cc2cn(Cc3ccccc3)nc2-c2cc3ccccc3o2)CC1 | 11.2 µM [falling, single point] | –
41 | CCC(C)N1C(=O)S/C(=C/c2ccc3c(c2)n(C)c(=O)n3C)C1=O (stereo not drawn) | 12.6 µM [rising, partial curve, poor fit] | –
42 | COc1ccc(/C=N/NC(=O)CCOc2ccccc2C)cc1OC | 29.1 µM [falling, single point] | –
